The values below are quoted from earlier work in patent US20060110767A1, “Genotyping assay to predict cytochrome P4503A5 exression” (priority 2001, published 2006).

By UniProt entry, the sequences of proteins in these tests, tags left out.
UniProt P24462, whole entry: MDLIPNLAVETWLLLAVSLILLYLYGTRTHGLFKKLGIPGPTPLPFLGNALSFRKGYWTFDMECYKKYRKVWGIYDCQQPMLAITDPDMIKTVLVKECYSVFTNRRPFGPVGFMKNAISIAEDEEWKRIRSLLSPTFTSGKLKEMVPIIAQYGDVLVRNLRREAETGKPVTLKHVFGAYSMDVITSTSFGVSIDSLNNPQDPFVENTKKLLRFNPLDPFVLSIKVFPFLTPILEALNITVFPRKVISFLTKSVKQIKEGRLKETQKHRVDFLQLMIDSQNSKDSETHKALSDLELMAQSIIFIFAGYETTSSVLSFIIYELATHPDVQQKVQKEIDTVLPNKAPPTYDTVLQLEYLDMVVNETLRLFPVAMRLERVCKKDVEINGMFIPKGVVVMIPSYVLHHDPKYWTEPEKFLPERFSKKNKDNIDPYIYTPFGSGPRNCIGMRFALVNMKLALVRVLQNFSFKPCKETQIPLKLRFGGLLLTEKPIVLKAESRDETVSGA
UniProt P08684, whole entry: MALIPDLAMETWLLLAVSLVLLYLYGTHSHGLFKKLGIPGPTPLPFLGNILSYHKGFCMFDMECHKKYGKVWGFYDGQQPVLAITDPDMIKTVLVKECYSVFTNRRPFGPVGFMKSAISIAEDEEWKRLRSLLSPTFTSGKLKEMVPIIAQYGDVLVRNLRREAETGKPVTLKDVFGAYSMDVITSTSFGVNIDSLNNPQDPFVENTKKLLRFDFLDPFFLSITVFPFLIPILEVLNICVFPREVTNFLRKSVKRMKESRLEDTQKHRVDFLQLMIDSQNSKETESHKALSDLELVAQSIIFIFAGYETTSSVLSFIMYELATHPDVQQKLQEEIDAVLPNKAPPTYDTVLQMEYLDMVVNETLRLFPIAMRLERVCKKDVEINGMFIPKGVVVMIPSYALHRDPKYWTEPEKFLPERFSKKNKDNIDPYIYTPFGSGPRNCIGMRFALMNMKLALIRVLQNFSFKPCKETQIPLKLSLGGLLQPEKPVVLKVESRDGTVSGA

In data set [1] the target is CYP3A7 (Homo sapiens, UniProt P24462). Further details: key to the marks not given beside the values. To be noted: cited from earlier work.
The target of data set [2] is CYP3A4 (Homo sapiens, UniProt P08684). Further details: key to the marks not given beside the values. Particulars: cited from earlier work.

`COC(=O)C1=C(C)NC(C)=C(C(=O)OC)C1c1ccccc1[N+](=O)[O-]` [Nifedipine]: the “CYP isoforms expressed in cells 3A7” value in data set [1] is “+++”. Moreover, in data set [2], the “CYP isoforms expressed in cells 3A4” value is “+++”.
